Measurements from PubChem BioAssay AID212 (DTP/NCI, 2004).
The list is a part of this screen's results and no random one: it gathers tests that were run many times, whatever their T/C, doses with no T/C, and many T/C values between a quarter and a half above the control. Further doses and runs are listed elsewhere. T/C is the treated group as % of the vehicle group. Schedule codes are those of the source, read here as Q, the interval in days (D) or hours (H), X, the number of doses. Some T/C values are followed by the survivors on the day toxicity was checked, most often the fifth; where none is given, no animal had died by that day. Some doses were run more than once; the results are listed from low to high. Some doses have a count of surviving animals in place of a T/C: the source holds a T/C of zero for them, seemingly a mark for toxic or unscored doses. Survivors were counted at the toxicity check, usually on the fifth day, unless a day is given; later deaths do not show.

Test system: BDF1 mice, colon carcinoma 38 sc, T/C %
Assay: NCI In Vivo Anticancer Drug Screen. Data for tumor model Colon Carcinoma 38 (subcutaneous) in B6D2F1 (BDF1) mice
Conditions: T/C endpoint: median tumor weight (est.), higher T/C = larger tumour; for T/C: evaluated on day 20
In short: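 Compound antitumor activity was assessed in mice carrying transplantable tumors. Survival or tumor size was recorded, and each value is the treated-group measurement divided by that of the vehicle-treated control group.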

[1] = dose: 25.0 mg/kg/injection, schedule: Q07DX002 (ip), vehicle: saline with Tween-80
[2] = dose: 100.0 mg/kg/injection, schedule: Q07DX002 (ip), vehicle: saline with Tween-80
[3] = dose: 800.0 mg/kg/injection, schedule: Q07DX002 (ip), vehicle: saline with Tween-80
[4] = dose: 100.0 mg/kg/injection, schedule: Q07DX002 (ip), vehicle: Klucel (hydroxypropylcellulose) (HPC)
[5] = dose: 400.0 mg/kg/injection, schedule: Q07DX002 (ip), vehicle: Klucel (hydroxypropylcellulose) (HPC)
[6] = dose: 200.0 mg/kg/injection, schedule: Q07DX002 (ip), vehicle: saline
[7] = dose: 12.5 mg/kg/injection, schedule: Q07DX002 (ip), vehicle: saline

CC(=O)Nc1ccc(O)c(O)c1
T/C [1]: 128 [9 of 10 alive on day 20] and 149 % of control | T/C (dose: 50.0 mg/kg/injection, schedule: Q07DX002 (ip), vehicle: saline with Tween-80): 128 % of control | T/C [2]: 139 % of control | T/C (dose: 200.0 mg/kg/injection, schedule: Q07DX002 (ip), vehicle: saline with Tween-80): 148 % of control | T/C [3]: 127 % of control

Oc1ccc(O)cc1
survivor count (dose: 200.0 mg/kg/injection, schedule: Q07DX002 (ip), vehicle: suspension in saline): 0 of 10 on day 20

O=NN(CCCl)C(=O)Oc1cc(Cl)c(Cl)cc1Cl
survivor count [4]: 2 of 10 on day 20 | survivor count (dose: 200.0 mg/kg/injection, schedule: Q07DX002 (ip), vehicle: Klucel (hydroxypropylcellulose) (HPC)): 0 of 10 on day 20 | survivor count [5]: 0 of 10 on day 20

Nc1ccc(S(=O)(=O)Nc2cnc3c(Cl)cccc3n2)cc1
survivor count (dose: 500.0 mg/kg/injection, schedule: Q07DX002 (ip), vehicle: DMSO): 0 of 10 on day 20 | survivor count (dose: 1000.0 mg/kg/injection, schedule: Q07DX002 (ip), vehicle: DMSO): 0 of 10 on day 20 | survivor count (dose: 2000.0 mg/kg/injection, schedule: Q07DX002 (ip), vehicle: DMSO): 0 of 10 on day 20

CC(=O)N(C)c1ccc(Nc2cc(C)[nH]c3ccc4ncnc4c23)cc1
survivor count [6]: 0 of 10 on day 20 | survivor count (dose: 400.0 mg/kg/injection, schedule: Q07DX002 (ip), vehicle: saline): 0 of 10 on day 20

Nc1ncnc2c1ncn2C1OC(CO)C(O)C1O (stereo not given)
T/C (dose: 37.5 mg/kg/injection, schedule: Q07DX002 (ip), vehicle: saline): 127 % of control | T/C (dose: 100.0 mg/kg/injection, schedule: Q07DX003 (ip), vehicle: saline): 149 % of control | survivor count [6]: 0 of 5 | T/C (dose: 200.0 mg/kg/injection, schedule: Q07DX003 (ip), vehicle: saline): 147 % of control | T/C (dose: 400.0 mg/kg/injection, schedule: Q07DX003 (ip), vehicle: saline): 125 % of control [9 of 10 alive on day 20] | T/C (dose: 600.0 mg/kg/injection, schedule: Q07DX003 (ip), vehicle: saline): 141 % of control | T/C (dose: 1200.0 mg/kg/injection, schedule: Q07DX002 (ip), vehicle: saline): 136 % of control

CCc1nc(N)nc(N)c1-c1ccc(Cl)c(N=[N+]=[N-])c1
survivor count (dose: 800.0 mg/kg/injection, schedule: Q07DX002 (ip), vehicle: distilled water + Tween-80): 6 of 10 on day 20

NCCCNCCSP(=O)(O)O
survivor count [3]: 0 of 10 on day 20

c1cc2n(n1)CCN2
T/C [7]: 131 % of control | T/C (dose: 50.0 mg/kg/injection, schedule: Q04DX003 (ip), vehicle: saline): 130 % of control | survivor count (dose: 400.0 mg/kg/injection, schedule: Q01DX005 (ip), vehicle: saline): 3 of 10

Cc1c(-c2ccc(-c3ccccc3F)cc2)nc2ccc(F)cc2c1C(=O)O
survivor count (dose: 40.0 mg/kg/injection, schedule: Q01DX008 (ip), vehicle: water): 6 of 10 on day 20 | survivor count (dose: 80.0 mg/kg/injection, schedule: Q01DX008 (ip), vehicle: water): 0 of 10 on day 20

CCCC(=O)O.CCCC(=O)O.CCCC(=O)O.CCCC(=O)O.[Rh].[Rh]
survivor count (dose: 2.0 mg/kg/injection, schedule: Q07DX002 (ip), vehicle: saline + alcohol): 3 of 10 on day 20 | survivor count (dose: 4.0 mg/kg/injection, schedule: Q07DX002 (ip), vehicle: saline + alcohol): 1 of 10 on day 20

O=C(C#Cc1ccccc1)c1ccccc1
T/C (dose: 6.25 mg/kg/injection, schedule: Q07DX002 (ip), vehicle: Klucel (hydroxypropylcellulose) (HPC)): 126 % of control | survivor count (dose: 50.0 mg/kg/injection, schedule: Q07DX002 (ip), vehicle: Klucel (hydroxypropylcellulose) (HPC)): 6 of 10 on day 20 | survivor count [4]: 0 of 10 on day 20 | survivor count (dose: 100.0 mg/kg/injection, schedule: Q07DX002 (ip), vehicle: water): 2 of 10 on day 20

CCOC(=O)C(CC(C)C)NC(=O)C(Cc1ccc(N(CCCl)CCCl)cc1)NC(C)=O (stereo not given)
survivor count (dose: 128.0 mg/kg/injection, schedule: Q07DX002 (ip), vehicle: saline with Tween-80): 5 of 10 | survivor count (dose: 256.0 mg/kg/injection, schedule: Q07DX003 (ip), vehicle: saline with Tween-80): 6 of 10

CC1CN1P1(N2CC2C)=NP(N2CC2C)(N2CC2C)=NP(N2CC2C)(N2CC2C)=N1 (stereo not given)
T/C (dose: 6.25 mg/kg/injection, schedule: Q07DX002 (ip), vehicle: saline): 134 % of control | T/C [7]: 128 % of control | T/C (dose: 25.0 mg/kg/injection, schedule: Q07DX002 (ip), vehicle: saline): 131 % of control | T/C (dose: 50.0 mg/kg/injection, schedule: Q07DX002 (ip), vehicle: saline): 128 % of control | survivor count [6]: 0 of 10 on day 20 and 3 of 10 on day 20

CN=C(N)N/N=C(\c1ccccc1)c1ccc(Br)cc1
T/C [1]: 145 % of control | survivor count [2]: 0 of 10 on day 20

CC(C)CC(=O)NC(C(=O)NC(C(=O)NC(CC(C)C)C(O)CC(=O)NC(C)C(=O)NC(CC(C)C)C(O)CC(=O)O)C(C)C)C(C)C (stereo not given)
T/C (dose: 12.5 mg/kg/injection, schedule: Q07DX002 (ip), vehicle: Klucel (hydroxypropylcellulose) (HPC)): 137 % of control [9 of 10 alive on day 20] | T/C [5]: 144 % of control
